Laboratory results: PubChem BioAssay AID504791 (Drosophila RNAi Screening Center, 2011)

Test: 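Factors in Argonaute-based small RNA production and activity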 (primary screen)
System: Drosophila S2-derived reporter cells
Knock-down reagent: long dsRNA against Drosophila genes, about 150-250 ng dsRNA per well (siRNA assay); about 80-120 ng (miRNA assay)
Time to read-out: about 5 days (siRNA assay); about 4 days (miRNA assay)
Challenge: copper sulfate induction of reporters: 25 µM (siRNA assay); 200 mM stated (miRNA assay), 1-2 days before reading
Measurement: 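Dual luciferase assay: Renilla to firefly signal ratio in each well, scaled to the mean ratio of its plate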
Hit rule: 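First-pass picks had plate-scaled ratios over 1.5 for the siRNA assay, over 1.6 for the miRNA assay, or under 0.6; two distinct dsRNAs had to score alike on retest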
The deposit covers about 23,000 reagents; below is an unselected part of those that have a named target and a result. Of all reagents, 199 (0.86%) were called active. 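Plate-scaled ratios behind the calls are not deposited; printed light signals are raw; many rows marked increased or decreased are still called inactive.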 Not stated in the record: the direction of the score.

| Gene | DRSC id | stable siRNA reporter change | miRNA reporter change | stable assay Renilla, run 1 (luminescence) | stable assay firefly, run 1 (luminescence) | call |
| --- | --- | --- | --- | --- | --- | --- |
| CG34398 | DRSC01052 | – | – | 5355 | 5.60e5 | inactive |
| CG34398 | DRSC02510 | – | – | 8647 | 5.50e5 | inactive |
| CG34398 | DRSC02511 | – | – | 7640 | 1.33e6 | inactive |
| CG34398 | DRSC03228 | – | – | 8278 | 5.38e5 | inactive |
| CG34398 | DRSC23293 | – | – | 3836 | 3.68e5 | inactive |
| CG14671 | DRSC12257 | – | – | 6351 | 4.01e5 | inactive |
| bin3 (bicoid-interacting protein 3) | DRSC04919 | – | – | 7099 | 5.21e5 | inactive |
| TH1 | DRSC20289 | reporter ratio lowered past the hit cutoff | reporter ratio lowered past the hit cutoff | 8224 | 9.21e5 | active |
| Cyt-c-d (Cytochrome c distal) | DRSC03309 | – | – | 6790 | 5.36e5 | inactive |
| grh (grainy head) | DRSC05680 | – | – | 4892 | 3.60e5 | inactive |
| grh (grainy head) | DRSC05683 | – | – | 5820 | 3.63e5 | inactive |
| grh (grainy head) | DRSC07624 | – | – | 8403 | 3.73e5 | inactive |
| grh (grainy head) | DRSC07625 | – | – | 5282 | 3.75e5 | inactive |
| Gmap (Golgi microtubule-associated protein) | DRSC19988 | – | – | 8130 | 5.46e5 | inactive |
| Gmap (Golgi microtubule-associated protein) | DRSC20057 | – | – | 5628 | 4.70e5 | inactive |
| RasGAP1 (Ras GTPase activating protein 1) | DRSC11172 | – | – | 6410 | 3.40e5 | inactive |
| Hand | DRSC02656 | – | – | 7763 | 4.14e5 | inactive |
| betaTub56D (beta-Tubulin at 56D) | DRSC07583 | – | – | 8092 | 3.73e5 | inactive |
| CG1077 | DRSC12146 | – | – | 5311 | 6.12e5 | inactive |
| CG10467 | DRSC09728 | – | – | 5699 | 3.77e5 | inactive |
| Slc25A46b | DRSC02888 | – | – | 6972 | 3.52e5 | inactive |
| Dek | DRSC07418 | – | reporter ratio lowered past the hit cutoff | 6520 | 3.33e5 | inactive |
| CG3862 | DRSC00631 | – | – | 9632 | 2.37e5 | inactive |
| pps (protein partner of snf) | DRSC16057 | – | – | 9327 | 3.61e5 | inactive |
| CG31517 | DRSC13010 | – | – | 4072 | 3.81e5 | inactive |
| CG14659 | DRSC12245 | – | – | 7631 | 4.65e5 | inactive |
| CG31323 | DRSC14901 | – | – | 6959 | 4.15e5 | inactive |
| CG6230 | DRSC01989 | – | – | 20491 | 7.25e5 | inactive |
| Hen1 (Hen1 methyltransferase) | DRSC06139 | – | – | 8946 | 5.16e5 | inactive |
| Hen1 (Hen1 methyltransferase) | DRSC06140 | – | – | 7075 | 4.79e5 | inactive |
| Lcp65Aa | DRSC11209 | – | – | 7825 | 4.79e5 | inactive |
| Gnptab | DRSC07057 | – | – | 7951 | 3.42e5 | inactive |
| CR33315 (pseudo) | DRSC22947 | – | – | 4811 | 3.51e5 | inactive |
| MED18 (Mediator complex subunit 18) | DRSC18549 | – | – | 6111 | 3.86e5 | inactive |
| CG2736 | DRSC04314 | – | – | 20266 | 1.64e6 | inactive |
| CG42780 | DRSC17514 | – | – | 5472 | 4.57e5 | inactive |
| CG6614 | DRSC02974 | – | – | 5767 | 3.10e5 | inactive |
| dally (division abnormally delayed) | DRSC08954 | – | – | 4363 | 3.54e5 | inactive |
| dally (division abnormally delayed) | DRSC11338 | – | – | 8039 | 5.40e5 | inactive |
| Jabba | DRSC06521 | – | – | 9991 | 3.80e5 | inactive |
| CG7968 | DRSC01903 | – | – | 8290 | 3.74e5 | inactive |
| CG4714 | DRSC06883 | – | – | 7399 | 5.54e5 | inactive |
| Pex7 (Peroxin 7) | DRSC10651 | – | – | 6266 | 4.31e5 | inactive |
| ND-30 (NADH dehydrogenase (ubiquinone) 30 kDa subunit) | DRSC08243 | – | – | 8118 | 5.16e5 | inactive |
| CG12992 | DRSC19512 | – | – | 5462 | 4.93e5 | inactive |
| ACXC (Adenylyl cyclase X C) | DRSC00846 | – | – | 6326 | 3.35e5 | inactive |
| mIF3 (mitochondrial translation initiation factor 3) | DRSC06290 | – | – | 6947 | 3.48e5 | inactive |
| SLC5A11 (Sodium/solute co-transporter-like 5A11) | DRSC03088 | – | – | 1.42e5 | 4.06e5 | inactive |
| CoRest | DRSC19881 | – | – | 4983 | 4.46e5 | inactive |
| CoRest | DRSC21626 | – | – | 7446 | 4.28e5 | inactive |
| CoRest | DRSC22305 | – | – | 5991 | 4.11e5 | inactive |
| SPoCk (Secretory Pathway Calcium atpase) | DRSC11675 | – | – | 7494 | 4.35e5 | inactive |
| SPoCk (Secretory Pathway Calcium atpase) | DRSC11706 | – | reporter ratio raised past the hit cutoff | 7615 | 5.57e5 | inactive |
| SPoCk (Secretory Pathway Calcium atpase) | DRSC11844 | – | – | 7438 | 3.09e5 | inactive |
| SPoCk (Secretory Pathway Calcium atpase) | DRSC11845 | – | – | 7374 | 3.62e5 | inactive |
| ND-B8 (NADH dehydrogenase (ubiquinone) B8 subunit) | DRSC00449 | – | – | 7709 | 4.40e5 | inactive |
| CG7755 | DRSC07040 | – | – | 6231 | 3.48e5 | inactive |
